Values after ≈ are worked out from the molar mass of the structure shown. At least one peptide structure holds a part that was inferred or is arguable (an end, a ring closure or a residue). *1 amine or outer side, *2 acyl side, *3 side chain or, on linkers, in order; H or OH if unused. Where a SMILES comes first, the peptide text is derived from it. Bridges are numbered along the chain shown (N, C = ends). [ ]: non-standard residue; d: D form. The star is where a group is joined. ξ: configuration not given here. X1 = COC(C#Cc1ccc(-c2ccc(C(=O)*)cc2)cc1)(c1ccccc1)c1ccccc1; X2 = CC(C)(C)OCCOc1ccc2cc(C#Cc3ccc4cc(C(=O)*)ccc4c3)ccc2c1; X3 = CC(C#Cc1ccc(-c2ccc(C(=O)*)cc2)cc1)(c1ccccc1)c1ccccc1; ξOrn(4,5-diOH) = O=C(C(CC(O)C(O)N[*:3])N[*:1])[*:2]; ξhTyr(βξ-OH,γξ-OH) = NC(C(=O)O)C(O)C(O)c1ccc(O)cc1; ξPro(3ξ-OH,4ξ-Me) = CC1CNC(C(=O)O)C1O; Hyp = O=C(O)[CH]1C[CH](O)CN1
How the values were obtained:
C. albicans [1] = experiment: Minimal inhibitory concentration (MIC), standard agar dilution or disc-diffusion test; assay type: cell-based; conditions: in vitro
C. albicans [2] = experiment: Effective dose for controlling a systemic fungal infection (C. albicans) in vivo (mice)

| Structure (SMILES) | Minimal inhibitory concentration against C. albicans, MIC (C. albicans [1]) [µg/mL] | ED50 (mouse) (C. albicans [2]; route not given) [mg/kg] | ED50 (mouse) (C. albicans [2]; oral) [mg/kg] |
| --- | --- | --- | --- |
| COC(C#Cc1ccc(-c2ccc(C(=O)NC3CC(O)C(O)NC(=O)C4C(O)C(C)CN4C(=O)C(C(C)O)NC(=O)C(C(O)C(O)c4ccc(O)cc4)NC(=O)C4CC(O)CN4C(=O)C(C(C)O)NC3=O)cc2)cc1)(c1ccccc1)c1ccccc1 (stereo not drawn) [Example 2] (X1-[ξOrn(4,5-diOH)]T[Hyp][ξhTyr(βξ-OH,γξ-OH)]T[ξPro(3ξ-OH,4ξ-Me)]; lactam 1-C; configuration not given here) | 0.156 (≈ 0.13 µM) | > 50 |  |
| CC(O)C1NC(=O)C(NC(=O)c2ccc(-c3ccc(C#CC(C)(c4ccccc4)c4ccccc4)cc3)cc2)CC(O)C(O)NC(=O)C2C(O)C(C)CN2C(=O)C(C(C)O)NC(=O)C(C(O)C(O)c2ccc(O)cc2)NC(=O)C2CC(O)CN2C1=O (stereo not drawn) [Example 1] (X3-[ξOrn(4,5-diOH)]T[Hyp][ξhTyr(βξ-OH,γξ-OH)]T[ξPro(3ξ-OH,4ξ-Me)]; lactam 1-C; configuration not given here) | 0.039 (≈ 0.033 µM) |  |  |
| CC(O)C1NC(=O)C(NC(=O)c2ccc3cc(C#Cc4ccc5cc(OCCOC(C)(C)C)ccc5c4)ccc3c2)CC(O)C(O)NC(=O)C2C(O)C(C)CN2C(=O)C(C(C)O)NC(=O)C(C(O)C(O)c2ccc(O)cc2)NC(=O)C2CC(O)CN2C1=O (stereo not drawn) [Example 4] (X2-[ξOrn(4,5-diOH)]T[Hyp][ξhTyr(βξ-OH,γξ-OH)]T[ξPro(3ξ-OH,4ξ-Me)]; lactam 1-C; configuration not given here) | 0.005 (≈ 0.0041 µM) |  | 22 |

From patent US5629290A, “Cyclic peptide antifungal agents” (Eli Lilly and Company, priority 1996, dated 1997)
